Measurements from paper PMC7862700.
This is a selection; strong and weak results do not stand in their true shares. At the low end of the ranking, values are background and their order means little.

The chains behind the UniProt entries cited, without tags or fusion partners. Where a name states a change or a piece, a line headed by the entry shows the natural chain unless it says otherwise.
UniProt P41212: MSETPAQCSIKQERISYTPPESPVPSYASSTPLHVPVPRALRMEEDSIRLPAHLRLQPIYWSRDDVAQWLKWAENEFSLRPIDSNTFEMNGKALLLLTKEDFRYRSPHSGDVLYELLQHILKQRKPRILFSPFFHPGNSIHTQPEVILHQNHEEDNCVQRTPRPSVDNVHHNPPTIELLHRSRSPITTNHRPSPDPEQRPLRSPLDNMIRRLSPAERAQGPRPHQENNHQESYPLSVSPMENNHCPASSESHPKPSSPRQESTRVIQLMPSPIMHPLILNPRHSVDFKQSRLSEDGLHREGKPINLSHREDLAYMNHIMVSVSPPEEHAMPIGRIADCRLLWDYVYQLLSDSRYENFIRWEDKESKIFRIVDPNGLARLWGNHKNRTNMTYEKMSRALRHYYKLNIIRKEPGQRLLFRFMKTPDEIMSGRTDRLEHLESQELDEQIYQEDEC

target: ETV6 (UniProt P41212); assay: DAPPL (digital affinity profiling via proximity ligation, sequencing); conditions: 10 mM Tris-HCl pH 7.5, 50 mM NaCl, 1 mM DTT, 4% glycerol, room temperature, 30 min; GST-TFs on glutathione beads, 16-mer random dsDNA library, 0.1% …; high values mean tight binding; double strand, one strand shown; scale: fold enrichment (6-mer frequency, TF over GST control)

| Sequence | binding signal |
| --- | --- |
| TCGCTG | 0.986 |
| TGTGGC | 1.19 |
| CGTTGC | 1.04 |
| TGAATA | 1.08 |
| CTTCAC | 1.43 |
| TAATAT | 1.23 |
| GTCACG | 1.04 |
| GATATG | 1.04 |
| TGTGCC | 1.21 |
| TAGATG | 1.24 |
| TATGGG | 1.34 |
| ACGGAA | 2.14 |
| CGCGCG | 0.961 |
| CAAACT | 1.21 |
| CTTTAG | 1.21 |
| TACCTA | 1.29 |
| GCAGCT | 1.06 |
| TAAGTT | 1.49 |
| TATATG | 1.34 |
| TGTGAT | 0.956 |

Nothing new here: entries from further up.

| Sequence | binding signal |
| --- | --- |
| TAGATG | 1.24 |
| TATGGG | 1.34 |

Later entries.

| Sequence | binding signal |
| --- | --- |
| CCGCTG | 1.11 |
| TTGCCC | 1.23 |
| TAGTTA | 1.16 |
| ACAAAA | 1.17 |
| AATCTC | 1.26 |
| TGCGTC | 0.965 |
| CACTGT | 1.05 |
| ACCCAC | 1.2 |
| TACAAC | 1.11 |
| GCTTAC | 1.03 |
| ATTGAG | 0.979 |
| AGATGT | 0.948 |
| CTCCCA | 1.46 |
| CATTCA | 1.09 |
| TTGCAG | 1.12 |
| CCTGCC | 1.36 |
| CTAAAT | 1.3 |
| GCACAT | 1.14 |
| TGACAT | 1.37 |
